Test results: patent US20140303228A1, “Biomarkers for Amyotrophic Lateral Sclerosis and Methods Using the Same” (METABOLON, INC., priority 2011, published 2014)
Counter-ions that a name gives are not always drawn.

Assay: Metabolomic profiling of blood plasma samples, ALS vs. symptom mimic disease subjects (Tables 5, 9)
Design: species or system human
Conditions: blood plasma; ALS mean (172 subjects) vs symptom mimic disease mean (73 subjects); positive = increase in ALS; T-test

Compound | % Change in ALS
1-eicosadienoylglycerophosphocholine | 10%
1-palmitoylplasmenylethanolamine | 11%
13-HODE + 9-HODE | 15%
CC(O)CO (stereo not shown) [1,2-propanediol] | 47%
Cn1c(=O)c2c([nH]c(=O)n2C)n(C)c1=O [1,3,7-trimethylurate] | −20%
O=C(CO)CO [1,3-dihydroxyacetone] | 5%
OC[C@H]1OC[C@H](O)[C@@H](O)[C@@H]1O [1,5-anhydroglucitol (1,5-AG), 1,5-anhydroglucitol] | 6%
O[C@@H]1[C@@H](O)[C@@H]2OC[C@@H](O2)[C@H]1O [1,6-anhydroglucose] | 9%
Cn1c(=O)[nH]c2[nH]c(=O)n(C)c2c1=O [1,7-dimethylurate] | −20%
CCCCC/C=C\C/C=C\C/C=C\C/C=C\CCCC(=O)OC[C@@H](O)COP(=O)([O-])OCC[N+](C)(C)C [1-arachidonoylglycerophosphocholine] | 8%
CCCCC/C=C\C/C=C\C/C=C\C/C=C\CCCC(=O)OC[C@@H](O)COP(=O)(O)OCCN [1-arachidonoylglycerophosphoethanolamine] | 10%
CCCCC/C=C\C/C=C\C/C=C\C/C=C\CCCC(=O)OC[C@@H](O)COP(=O)(O)OC1[C@H](O)[C@H](O)C(O)[C@H](O)[C@H]1O (stereo partly shown) [1-arachidonoylglycerophosphoinositol] | 12%
CCCCCCCCCCCCCCCCC(=O)OC[C@@H](O)COP(=O)([O-])OCC[N+](C)(C)C [1-heptadecanoylglycerophosphocholine] | 12%
Cn1c(=O)[nH]c2[nH]c(=O)[nH]c2c1=O [1-methylurate] | −15%
Cn1c(=O)[nH]c2nc[nH]c2c1=O [1-methylxanthine] | −16%
CCCCCCCC/C=C\CCCCCCCC(=O)OC[C@@H](O)COP(=O)([O-])OCC[N+](C)(C)C [1-oleoylglycerophosphocholine] | 6%
CCCCCCCC/C=C\CCCCCCCC(=O)OCC(O)COP(=O)(O)OCCN (stereo not shown) [1-oleoylglycerophosphoethanolamine] | 11%
CCCCCC/C=C\CCCCCCCC(=O)OCC(O)COP(=O)([O-])OCC[N+](C)(C)C (stereo not shown) [1-palmitoleoylglycerophosphocholine] | 5%
CCCCCCCCCCCCCCC(=O)OCC(O)COP(=O)([O-])OCC[N+](C)(C)C (stereo not shown) [1-pentadecanoylglycerophosphocholine] | 5%
CCCCCCCCCCCCCCCCCC(=O)OC[C@@H](O)COP(=O)([O-])OCC[N+](C)(C)C [1-stearoylglycerophosphocholine] | 18%
CCCCCCCCCCCCCCCCCC(=O)OC[C@@H](O)COP(=O)(O)OC1[C@H](O)[C@H](O)C(O)[C@H](O)[C@H]1O (stereo partly shown) [1-stearoylglycerophosphoinositol] | 14%
CCCCC/C=C\C/C=C\C/C=C\C/C=C\CCCC(=O)O[C@H](CO)COP(=O)(O)OCCN [2-arachidonoylglycerophosphoethanolamine] | 18%
O=C(O)CCC(O)C(=O)O (stereo not shown) [2-hydroxyglutarate] | 10%

Compound | % Change in ALS
O=C(O)CNC(=O)c1ccccc1O [2-hydroxyhippurate (salicylurate), 2-hydroxyhippurate] | −62%
CC(C)(O)C(=O)O [2-hydroxyisobutyrate] | 8%
CCCCCCC(O)C(=O)O (stereo not shown) [2-hydroxyoctanoate] | −7%
CCCCCCCCCCCCCCC(O)C(=O)O (stereo not shown) [2-hydroxypalmitate] | 6%
CCCCCCCCCCCCCCCCC(O)C(=O)O (stereo not shown) [2-hydroxystearate] | 9%
CCC(C)C(=O)OC(CC(=O)[O-])C[N+](C)(C)C (stereo not shown) [2-methylbutyroylcarnitine] | −7%
CCCCCCCC/C=C\CCCCCCCC(=O)OC(CO)COP(=O)([O-])OCC[N+](C)(C)C (stereo not shown) [2-oleoylglycerophosphocholine] | 9%
CCCCCCCC/C=C\CCCCCCCC(=O)OC(CO)COP(=O)(O)OCCN (stereo not shown) [2-oleoylglycerophosphoethanolamine] | 10%
CCCCCCCCCCCCCCCC(=O)OC(CO)COP(=O)([O-])OCC[N+](C)(C)C (stereo not shown) [2-palmitoylglycerophosphocholine] | 9%
CCCCCCCCCCCCCCCCCC(=O)O[C@H](CO)COP(=O)([O-])OCC[N+](C)(C)C [2-stearoylglycerophosphocholine] | 14%
O=C(O)CCc1cccc(O)c1 [3-(3-hydroxyphenyl)propionate] | −30%
O=C(CCc1ccc(O)cc1)c1c(O)cc(O)cc1O [3-(4-hydroxyphenyl)-1-(2,4,6-trihydroxyphenyl)-1-propanone] | 456%
CC(=O)Nc1ccc(O)c(SC[C@H](N)C(=O)O)c1 [3-(cystein-S-yl)acetaminophen] | −37%
CC(O)CC(=O)O (stereo not shown) [3-hydroxybutyrate (BHBA), 3-hydroxybutyrate] | 27%
CC(CO)C(=O)O (stereo not shown) [3-hydroxyisobutyrate] | −7%
CCCCCC(O)CC(=O)O (stereo not shown) [3-hydroxyoctanoate] | −5%
Cn1cncc1C[C@H](N)C(=O)O [3-methylhistidine] | −30%
CCc1ccc(OS(=O)(=O)[O-])cc1.[K+] [4-ethylphenylsulfate] | 32%
O=C(O)CNC(=O)c1ccc(O)cc1 [4-hydroxyhippurate] | 15%
O=C(O)Cc1ccc(O)cc1 [4-hydroxyphenylacetate] | −13%
C=Cc1ccc(OS(=O)(=O)O)cc1 [4-vinylphenol sulfate] | −29%
O=C1CCNC(=O)N1 [5,6-dihydrouracil] | 27%
C[C@@H](OS(=O)(=O)O)C1CC[C@H]2[C@@H]3CC[C@H]4C[C@H](OS(=O)(=O)O)CC[C@]4(C)[C@H]3CC[C@]12C (stereo partly drawn) [5alpha-pregnan-3beta,20alpha-diol disulfate] | −26%

Compound | % Change in ALS
Cn1cnc2[nH]c(=O)[nH]c(=O)c21 [7-methylxanthine] | −45%
CCCCCCC=CCCCCCCCCC(=O)O [10-heptadecenoate (17:1n7), 10-heptadecenoate] | 10%
CCCCCCCCC=CCCCCCCCCC(=O)O [10-nonadecenoate (19:1n9), 10-nonadecenoate] | 19%
CC(C)CCCCCCCCCCCCCCCC(=O)O [17-methylstearate] | 10%
C[C@]12CC[C@H]3[C@@H](CC=C4C[C@@H](OS(=O)(=O)O)CC[C@@]43C)[C@@H]1CC[C@@H]2C(=O)COS(=O)(=O)O [21-hydroxypregnenolone disulfate] | 5%
CC(=O)NCCCC[C@H](N)C(=O)O [N6-acetyllysine] | −8%
O=C(O)CNC(=O)c1ccco1 [N-(2-furoyl)glycine] | −22%
CC(=O)NCC(=O)O [N-acetylglycine] | 10%
CC(=O)N[C@@H](CCCN)C(=O)O [N-acetylornithine] | −11%
CN1CCC[C@H]1C(=O)O [N-methyl proline] | −8%
CC(=O)CC(=O)O [acetoacetate] | 9%
CCCCC/C=C\C/C=C\C/C=C\C/C=C\CCCCCC(=O)O [adrenate (22:4n6), adrenate] | 15%
CCC(=O)C(=O)O [alpha-ketobutyrate] | 20%
Cc1c(C)c2c(c(C)c1O)CC[C@@](C)(CCC[C@H](C)CCC[C@H](C)CCCC(C)C)O2 [alpha-tocopherol] | 5%
O=C[C@@H](O)[C@H](O)[C@H](O)CO [arabinose] | 16%
OC[C@@H](O)C(O)[C@H](O)CO [arabitol] | −7%
C=CC1=C(C)/C(=C/c2[nH]c(Cc3[nH]c(/C=C4\NC(=O)C(C)=C4C=C)c(C)c3CCC(=O)O)c(CCC(=O)O)c2C)NC1=O [bilirubin (E,Z or Z,E), bilirubin] | 15%
C=CC1=C(C)/C(=C/C2=NC(=C\c3[nH]c(/C=C4\NC(=O)C(C)=C4C=C)c(C)c3CCC(=O)O)/C(CCC(=O)O)=C2C)NC1=O [biliverdin] | 9%
CC(C)[C@H](C)CC[C@@H](C)[C@H]1CC[C@H]2[C@@H]3CC=C4C[C@@H](O)CC[C@]4(C)[C@H]3CC[C@]12C [campesterol] | 11%
CCCCCCCCCC(=O)O [caprate (10:0), caprate] | 25%
CCCCCC(=O)O [caproate (6:0), caproate] | 5%
C[N+](C)(C)CC(O)CC(=O)[O-] (stereo not shown) [carnitine] | 4%
O=S(=O)(O)Oc1ccccc1O [catechol sulfate] | −30%

Same assay, conditions: plasma; ALS patients relative to symptom mimic disease patients; Random Forest and/or Wilcoxon (FDR < 0.15)

Compound | Direction of change in ALS
CC(O)CO (stereo not shown) [1,2-propanediol] | Higher
Cn1c(=O)[nH]c2[nH]c(=O)[nH]c2c1=O [1-methylurate] | Lower
CCCCCCCCCCCCCCCCCC(=O)OC[C@@H](O)COP(=O)(O)OC1[C@H](O)[C@H](O)C(O)[C@H](O)[C@H]1O (stereo partly shown) [1-stearoylglycerophosphoinositol] | Higher
C=Cc1ccc(OS(=O)(=O)O)cc1 [4-vinylphenol sulfate] | Lower
O=C1CCNC(=O)N1 [5,6-dihydrouracil] | Higher
Cn1cnc2[nH]c(=O)[nH]c(=O)c21 [7-methylxanthine] | Lower
CCC(=O)C(=O)O [alpha-ketobutyrate] | Higher
